T/C and survivor count data for 24 compounds are collected here from PubChem BioAssay AID200 (DTP/NCI, 2004).

The list is a part of this screen's results and no random one: it gathers tests that were run many times, whatever their T/C, doses with no T/C, and many T/C values between a quarter and a half above the control. Further doses and runs are listed elsewhere. T/C is the treated group as % of the vehicle group. Some entries give survivors of the animals treated and no T/C: the source holds a T/C of zero for them, seemingly a mark for toxic or unscored doses. Some survivor counts are full or nearly so, which does not show that the dose was tolerated: the source hardly ever lists a survival T/C far under the control, and the zero likely stands for such cases as well. Counts of survivors are from the toxicity check (mostly the fifth day) where no day follows; animals may have died later. Schedule codes are those of the source, taken here to give the interval after Q, in days (D) or hours (H), and the number of doses after X. Some entries hold several experiments; their values stand side by side, smallest first. Where survival is the endpoint, this PubChem deposit counts one and a half times the control or more as active, and values a quarter to a half above the control carry no call in these data; other NCI protocols may use other cut-offs. Some T/C values are followed by the survivors on the day toxicity was checked, most often the fifth; where none is given, no animal had died by that day. Signs of the kind (2×) stand for listed records that agree.

The subject of this assay is B6C3F1 mice, B16 melanoma ip, median survival T/C. Description: NCI In Vivo Anticancer Drug Screen. Data for tumor model B16 Melanoma (intraperitoneal) in B6C3F1 mice. To be noted: T/C endpoint: median survival time, higher T/C = longer survival. The procedure: The antitumor activity of compounds was measured in mice bearing transplantable tumors. Survival or tumor size were measured and the results are expressed as the measurement made in the treated group (T) divided by the measurement made in the vehicle treated control group (C). The tumor model used in this assay is B16 Melanoma (intraperitoneal) in B6C3F1 mice

[1] abbreviates: dose: 100.0 mg/kg/injection, schedule: Q01DX009 (ip), vehicle: saline.
The mark [2] stands for this setting: dose: 200.0 mg/kg/injection, schedule: Q01DX009 (ip), vehicle: saline.
[3] abbreviates: dose: 400.0 mg/kg/injection, schedule: Q01DX009 (ip), vehicle: saline.
Setting [4] is: dose: 80.0 micrograms/kg/injection, schedule: Q01DX009 (ip), vehicle: saline.
Setting [5] is: dose: 160.0 micrograms/kg/injection, schedule: Q01DX009 (ip), vehicle: saline.
Setting [6] is: dose: 400.0 mg/kg/injection, schedule: Q01DX009 (ip), vehicle: saline with Tween-80.
Setting [7] is: dose: 25.0 mg/kg/injection, schedule: Q01DX009 (ip), vehicle: saline.
Setting [8] is: dose: 100.0 mg/kg/injection, schedule: Q01DX009 (ip), vehicle: saline with Tween-80.
Setting [9] is: dose: 400.0 mg/kg/injection, schedule: Q01DX009 (ip), vehicle: Klucel (hydroxypropylcellulose) (HPC).
Setting [10] is: dose: 100.0 mg/kg/injection, schedule: Q01DX009 (ip), vehicle: Klucel (hydroxypropylcellulose) (HPC).
The mark [11] stands for this setting: dose: 200.0 mg/kg/injection, schedule: Q01DX009 (ip), vehicle: Klucel (hydroxypropylcellulose) (HPC).

`CCN(CC)CCOC(=O)Cc1cccc2c(=O)cc(-c3ccccc3)oc12`: the T/C under setting [1] was 127 % of control. Further, the survivor count is 6 of 10 under setting [1]; 2 of 10 and 6 of 10 under setting [2]; 0 of 10 under setting [3].
As for `CN(C)CCCNc1c2ccccc2nc2cccc([N+](=O)[O-])c12`, the T/C was 99 [8 of 10 alive], 101 (2×), 105, 108, 109 % of control (dose: 10.0 micrograms/kg/injection, schedule: Q01DX009 (ip), vehicle: saline); 98, 104, 105, 105 [9 of 10 alive], 108 % of control (2×) (dose: 20.0 micrograms/kg/injection, schedule: Q01DX009 (ip), vehicle: saline); 96, 96 [9 of 10 alive], 105, 106, 111, 123 % of control (dose: 40.0 micrograms/kg/injection, schedule: Q01DX009 (ip), vehicle: saline); 86 [9 of 10 alive], 94, 97, 98, 109 % of control under setting [4]; 90 and 105 % of control under setting [5]. For the same compound, the survivor count reads like this: under setting [4], 10 of 10; under setting [5], 9 of 10 and 10 of 10.
For `N[C@@H](C[C@H]1CCC(=O)[C@@H]2O[C@H]12)C(=O)O`, the T/C is 134 % of control (dose: 100.0 mg/kg/injection, schedule: Q01DX009 (ip), vehicle: saline + alcohol) and 125 % of control (dose: 200.0 mg/kg/injection, schedule: Q01DX009 (ip), vehicle: saline + alcohol).
Consider `CCOC(=O)C(CC(C)C)NC(=O)C(Cc1ccc(N(CCCl)CCCl)cc1)NC(C)=O` (configuration not stated), for which the T/C by setting is: (dose: 16.0 mg/kg/injection, schedule: Q01DX009 (ip), vehicle: saline with Tween-80) 125 % of control; (dose: 32.0 mg/kg/injection, schedule: Q01DX009 (ip), vehicle: saline with Tween-80) 125 and 137 % of control. Further, the survivor count by setting is: (dose: 64.0 mg/kg/injection, schedule: Q01DX009 (ip), vehicle: saline with Tween-80) 9 of 10; (dose: 128.0 mg/kg/injection, schedule: Q01DX009 (ip), vehicle: saline with Tween-80) 3 of 10 and 6 of 10.
Consider `COc1cccc2c1C(=O)c1c(O)c3c(c(O)c1C2=O)C[C@@](O)(/C(C)=N/NC(=O)c1ccc(Cl)cc1)C[C@@H]3OC1CC(N)C(O)C(C)O1` (some centres not stated), for which the T/C (dose: 1.0 mg/kg/injection, schedule: Q01DX009 (ip), vehicle: saline) was 144 % of control. In addition, the survivor count (dose: 16.0 mg/kg/injection, schedule: Q01DX009 (ip), vehicle: saline) was 10 of 10.
As for `NC(=O)Oc1cc(OC(N)=O)cc(N(CCCl)CCCl)c1`, the T/C (dose: 12.5 mg/kg/injection, schedule: Q01DX009 (ip), vehicle: Klucel (hydroxypropylcellulose) (HPC)) is 145 % of control.
With `Nc1cc(Cl)c(N=Nc2ccccc2)c(N)n1`, the survivor count under setting [6] is recorded as 8 of 10.
Regarding `O=NN(CCF)C(=O)NC1CCC(=O)NC1=O` (configuration not stated), the survivor count (dose: 120.0 mg/kg/injection, schedule: Q01DX001 (ip), vehicle: saline) was 5 of 10 on day 6.
Turning to `C1CN1P1(N2CC2)=NP(N2CC2)(N2CC2)=NP(N2CC2)(N2CC2)=NP(N2CC2)(N2CC2)=N1`, the survivor count (dose: 16.0 mg/kg/injection, schedule: Q02DX009 (ip), vehicle: saline) is listed as 10 of 10.
`CC1(C)N=C(N)N=C(N)N1c1ccc(F)c(C(F)(F)F)c1`: under setting [7], the T/C was 125 % of control. Further, the survivor count (dose: 50.0 mg/kg/injection, schedule: Q01DX009 (ip), vehicle: saline) is 10 of 10 and the survivor count under setting [1] is 3 of 10.
Consider `CCCCCCCCCCCCCCCCNc1cccc2ccccc12`, for which the survivor count (dose: 25.0 mg/kg/injection, schedule: Q01DX009 (ip), vehicle: saline with Tween-80) is 10 of 10 and the survivor count under setting [8] is on record as 10 of 10.
For `O=C(O)C1CC1.[Ag]`, the survivor count (dose: 12.5 mg/kg/injection, schedule: Q01DX009 (ip), vehicle: water) is 10 of 10 and the survivor count (dose: 25.0 mg/kg/injection, schedule: Q01DX009 (ip), vehicle: water) is given as 0 of 10.
With `NC(N)=O`, the survivor count (dose: 800.0 mg/kg/injection, schedule: Q01DX009 (ip), vehicle: saline) is reported as 3 of 10.
With `Cc1ccc(N)c(N)c1`, the survivor count under setting [6] was 4 of 10 and the survivor count (dose: 800.0 mg/kg/injection, schedule: Q01DX009 (ip), vehicle: saline with Tween-80) is on record as 0 of 10.
Regarding `O=c1nc(-c2ccco2)sc(=O)[nH]1`, under setting [9], the survivor count is on record as 0 of 10.
With `Cc1cc(N2C(=O)CCSC2=S)ccc1Cl`, the survivor count is 10 of 10 (dose: 50.0 mg/kg/injection, schedule: Q01DX009 (ip), vehicle: Klucel (hydroxypropylcellulose) (HPC)); 3 of 10 and 9 of 10 under setting [9].
In the case of `Nc1ccc(S(=O)(=O)Nc2cnc3c(Cl)cccc3n2)cc1`, the survivor count (dose: 800.0 mg/kg/injection, schedule: Q01DX009 (ip), vehicle: DMSO) is 1 of 10.
`Nc1ncnc2c1ncn2C1OCC(O)C1O` (configuration not stated): the T/C is 144 % of control (dose: 12.5 mg/kg/injection, schedule: Q01DX009 (ip), vehicle: saline); 130 % of control under setting [7]; 125 % of control (dose: 50.0 mg/kg/injection, schedule: Q01DX009 (ip), vehicle: saline, evaluated on day 50); 135 % of control (dose: 50.0 mg/kg/injection, schedule: Q01DX009 (ip), vehicle: saline, evaluated on day 60); 131 % of control (dose: 50.0 mg/kg/injection, schedule: Q01DX009 (ip), vehicle: suspension in saline); 129 % of control (dose: 100.0 mg/kg/injection, schedule: Q01DX009 (ip), vehicle: saline, evaluated on day 50). Besides, the T/C (dose: 100.0 mg/kg/injection, schedule: Q01DX009 (ip), vehicle: saline, evaluated on day 60) is 149 % of control. In addition, the survivor count (dose: 200.0 mg/kg/injection, schedule: Q01DX009 (ip), vehicle: suspension in saline) is 10 of 10.
Take `CC(O)C(NC(=O)OCC1c2ccccc2-c2ccccc21)C(=O)O` (configuration not stated): under setting [10], the T/C was 126 % of control. Also, the survivor count under setting [11] is listed as 8 of 10 and the survivor count under setting [9] is 0 of 10.
Consider `COc1cccc2c1C(=O)c1c(O)c3c(c(O)c1C2=O)C[C@@](O)(C(C)O)C[C@@H]3OC1CC(N2CCOCC2)C(O)C(C)O1` (some centres not stated), for which, for the setting “dose: 0.25 mg/kg/injection, schedule: Q01DX001 (ip), vehicle: water”, the T/C is 131 % of control. Further, the survivor count (dose: 0.5 mg/kg/injection, schedule: Q01DX001 (ip), vehicle: water) is recorded as 8 of 10; the survivor count (dose: 1.0 mg/kg/injection, schedule: Q01DX001 (ip), vehicle: water) is listed as 6 of 10; the survivor count (dose: 2.0 mg/kg/injection, schedule: Q01DX001 (ip), vehicle: water) was 1 of 10; the survivor count (dose: 500.0 micrograms/kg/injection, schedule: Q01DX001 (ip), vehicle: water) is 6 of 10.
Regarding `Cc1ccc(S(=O)(=O)OCOS(=O)(=O)c2ccc(C)cc2)cc1`, the T/C was 146 % of control under setting [10], 138 % of control under setting [11] and 138 % of control [9 of 10 alive] under setting [9]. Further, where the note is “dose: 800.0 mg/kg/injection, schedule: Q01DX009 (ip), vehicle: Klucel (hydroxypropylcellulose) (HPC)”, the survivor count is 7 of 10 and 10 of 10.
Turning to `Clc1ccc2c(Cl)ncnc2c1`, the survivor count under setting [8] was 10 of 10 and the survivor count (dose: 200.0 mg/kg/injection, schedule: Q01DX009 (ip), vehicle: saline with Tween-80) is reported as 4 of 10.
Take `c1csc(C[N+]23CN4CN(CN(C4)C2)C3)c1`: under setting [3], the survivor count is 0 of 10.
Turning to `C[C@@H]1C[C@@H]([C@H](O)CC2CC(=O)NC(=O)C2)C(=O)[C@@H](C)C1`, the survivor count under setting [1] is 6 of 9 and the survivor count under setting [2] was 1 of 9.
